Measured values as given in patent US8901146B2, “Aminoalkylpyrimidine derivatives as histamine H4 receptor antagonists” (Medicis Pharmaceutical Corporation, priority 2009, dated 2014).
Some results were stated once for a whole list of compounds, not compound by compound.

System: Male BALB/c mice
Experiment: Murine atopic dermatitis model by multiple oxazolone challenges
Assay type: in vivo
Conditions: at day 26; administered topically at a concentration of 0.5%
Method: Murine Atopic Dermatitis Model by Multiple Oxazolone Challenges
Method: Male BALB/c mice (n=5-7 per group) were sensitised on Day 1 by the topical application of 50 μL of 1% oxazolone in acetone/olive oil (4:1) on the abdominal skin. On days 8, 10, 12, 15, 17, 19, 22, 24 and 26, animals received repeated challenges with 25 μL of 0.2% oxazolone, applied topically on the inner side of their right ear. On days 8-26, 25 μL of a solution of the test compound (prepared by dissolving compound in acetone/olive oil 4:1 and heating) at the desired concentration were administered on the outer side of the right ears. On days 12, 19 and 26, right ear thickness was determined with a calliper one hour after oxazolone application.

Row | Compound | inhibition of oxazolone-induced ear inflammation
1 | CNC1CN(c2cc(CNCC3CC3)nc(N)n2)C1 [Example 1b, 4-((Cyclopropylmethylamino)methyl)-6-(3-(methylamino)azetidin-1-yl)pyrimidin-2-amine] | > 70%
2 | CNC1CN(c2cc(CNC3CCCC3)nc(N)n2)C1 [Example 1t, 4-((Cyclopentylamino)methyl)-6-(3-(methylamino)azetidin-1-yl)pyrimidin-2-amine] | > 70%
